# Reference: PubChem BioAssay AID445 (National Center for Advancing Translational Sciences (NCATS), 2006)
# This is one part of the list. Shown are side measurements of this screen, not its main read-out; they come without a call. Most of these compounds were active or inconclusive in the main read-out, so they are no random draw. Words in brackets tell the shape of the fitted curve; partial curves, single points and poor fits give uncertain potencies.
# Assay: IkB Signaling
# Conditions: ABC-DLBCL IkBa-CBG/CBR dual luciferase ratio (green luciferase fused to IkBa over red control in OCI-Ly3 lymphoma cells), 4 h
# In short: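 Luminescence ratio of IκBα-fused green versus native red beetle luciferase in OCI-Ly3 cells, 4 h post-doxycycline with compound; red signal alone, scaled from basal (0%) to zero light (-100%), flagged nonspecific or cytotoxic effects.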
# [1] = measured here: control luc red channel unless noted
# [2] = measured here: IkB-luc green channel
# [3] = measured here: control luc red channel
smiles,measurement,setting,value
O=C(CSc1nccn1Cc1ccco1)Nc1cc(C(F)(F)F)ccc1Cl,AC50,[1],"39.8 µM [falling, single point]"
CCN(c1ccccc1)c1nnc(NC(=O)Nc2ccc(Br)c(C)c2)s1,AC50,[1],"25.1 µM [falling, single point]"
CCOC(=O)C1CCCN(C(=O)Cn2sc3nc(C)cc(C)c3c2=O)C1 (stereo not given),AC50,[1],"15.8 µM [falling, single point] [measured here: IkB-luc green channel]"
O=C(c1ccc2c(Cl)c3c(nc2c1)CCCC3)N1CCN(c2cccc(C(F)(F)F)c2)CC1,AC50,[1],"6.31 µM [falling, full curve]"
Cc1cc(C)nc(-n2nc(C)c(Sc3ccc(F)cc3)c2N)n1,AC50,[1],"12.6 µM [falling, partial curve, poor fit]"
O=C(CN1C(=O)COc2ccc(S(=O)(=O)N3CCCCCC3)cc21)N1CCN(c2ccccc2F)CC1,AC50,[1],"20 µM [falling, single point]"
COc1ccc(Nc2cc(C(=O)NC3CCCC3)c3ccccc3n2)cc1,AC50,[1],"3.98 µM [falling, full curve, poor fit]"
CCOc1ccc(Nc2oc(Cc3ccccc3)nc2C#N)cc1,AC50,[1],"25.1 µM [falling, partial curve]"
CN1CCN(C(=O)Cn2ncc3c4ccccc4n(Cc4ccc(Cl)cc4)c3c2=O)CC1,AC50,[1],"10 µM [falling, partial curve]"
CS(=O)(=O)N1CCc2cc(C(=O)N3CCN(c4ccccc4F)CC3)ccc21,AC50,[1],"20 µM [falling, single point]"
O=C(CCSCc1ccc(Cl)cc1)NCc1ccc(F)cc1Cl,AC50,[1],"25.1 µM [falling, single point]"
O=C(c1cc2n(n1)C(C(F)(F)F)CC(c1ccco1)N2)N1CCc2ccccc2C1 (stereo not given),AC50,[1],"15.8 µM [falling, partial curve]"
O=C(NC1CCCCC1)c1ccc(CSc2nc3ccncc3n2Cc2ccc(F)cc2)cc1,AC50,[1],"15.8 µM [falling, partial curve]"
CCc1nn2c(=O)c(S(=O)(=O)Nc3ccc(Br)cc3F)c(C)nc2s1,AC50,[1],"39.8 µM [falling, single point]"
c1coc(C2Nc3cccc4cccc(c34)N2)c1,AC50,[1],"12.6 µM [rising, partial curve] [measured here: IkB-luc green channel]"
Cc1ccc2nc(Cl)c3cc(C(=O)NCCCN(C)Cc4ccccc4)sc3c2c1,AC50,[1],"31.6 µM [falling, single point]"
Cc1ccc2c(c1)c1c3n2CCN(C(=O)c2ccc(C(F)(F)F)cc2)C3CCC1 (stereo not given),AC50,[1],"10 µM [falling, partial curve]"
CC1=C(C(=O)OCc2ccc(C)cc2)C(c2cccc(F)c2F)CC(=O)N1 (stereo not given),AC50,[1],"3.16 µM [falling, full curve]"
COc1ccc(CCNC(=O)c2cc3c(=O)oc4ccc(C)cc4c3s2)cc1OC,AC50,[1],"3.16 µM [rising, full curve]"
COc1ccc(OCC(=O)Nc2ccc3nn(-c4ccc(OC)cc4)nc3c2)cc1,AC50,[1],"25.1 µM [rising, partial curve]"
CCCCCn1c(CNC(=O)c2ccccc2)nc2ccccc21,AC50,[1],"6.31 µM [falling, single point]"
Cc1cc(C)c(S(=O)(=O)N2CCN(Cc3ccc4c(c3)OCO4)CC2)cc1C,AC50,[1],"25.1 µM [falling, partial curve]"
Cc1ccc(C)c(N(C)C(=O)Cc2c(C(=O)O)[nH]c3ccc(Cl)cc23)c1,AC50,[1],"15.8 µM [falling, partial curve]"
COc1ccc(CN2CCN(c3ccccn3)CC2)cc1OCc1ccccc1,AC50,[1],"15.8 µM [falling, partial curve]"
COc1ccccc1-c1nn2c(=O)cc(CN3CCN(C(=O)/C=C/c4ccccc4)CC3)nc2s1,AC50,[1],"12.6 µM [falling, partial curve]"
CN(C)c1ccc(Nc2nc3ccccc3n3nnnc23)cc1,AC50,[1],"1 µM [falling, partial curve]"
COc1ccccc1CNC(=O)CSc1nc(=O)[nH]c2c1CCC2,AC50,[1],"20 µM [falling, partial curve]"
CCCC1=Nc2cc(C(=O)NCCOC)ccc2Sc2ccccc21,AC50,[2],"3.98 µM [rising, full curve]"
same,AC50,[3],"3.16 µM [rising, single point]"
O=C(Nc1nnc(C2CCCCC2)s1)c1ccc(Br)s1,AC50,[1],"0.01 µM [falling, full curve]"
Cc1cccc(CSc2ccc(-c3cccs3)nn2)c1,AC50,[1],"1.58 µM [rising, full curve]"
COc1ccc(-c2nc(SCC(=O)NCCc3ccccc3)n[nH]2)cc1,AC50,[1],"3.16 µM [falling, partial curve]"
COc1ccc(-c2noc(CSc3nnc(C)n3-c3ccc(C)c(C)c3)n2)c(OC)c1,AC50,[1],"39.8 µM [falling, single point]"
Cc1ccc2onc(CC(=O)N3CCN(c4ccccc4)CC3)c2c1,AC50,[1],"15.8 µM [falling, single point]"
N#C/C(=C\c1cc(Br)c(O)c(Br)c1)c1nc2ccccc2c(=O)[nH]1,AC50,[1],"5.01 µM [falling, full curve]"
Cc1ccc(CCNC(=O)CCn2nc(-c3ccc(C)cc3)ccc2=O)cc1,AC50,[1],"39.8 µM [falling, single point]"
COc1cccc(C(=O)n2nc(-c3cccnc3)nc2NCc2ccc(F)cc2)c1,AC50,[1],"5.01 µM [falling, partial curve]"
COc1ccccc1CNC(=O)Cn1c(=O)nc(-c2ccccc2)c2ccccc21,AC50,[1],"31.6 µM [falling, single point]"
COC(=O)c1ccc(NC(=O)CN(Cc2ccccc2)S(=O)(=O)c2ccc(Cl)cc2)cc1,AC50,[1],"15.8 µM [falling, partial curve]"
Cc1c(Cl)cccc1NC(=O)Nc1ccc2snnc2c1,AC50,[1],"15.8 µM [falling, partial curve]"
O=C(NCCc1ccccc1)c1ccc(CS(=O)(=O)c2ccc(Cl)cc2)o1,AC50,[1],"39.8 µM [falling, single point]"
CCn1c(=S)sc2c(=O)n(-c3ccccc3)c(SC)nc21,AC50,[1],"20 µM [falling, partial curve]"
COc1ccc(OCC(=O)NCC(c2ccc(OC)cc2)N2CCOCC2)cc1 (stereo not given),AC50,[1],"0.0126 µM [rising, full curve]"
Cc1cc(NC(=O)c2cnc3c(-c4ccccc4)c(C)nn3c2C)ccc1Br,AC50,[1],"1.26 µM [falling, full curve]"
COc1ccccc1NC(=O)C1CCCCN1S(=O)(=O)c1ccc(F)cc1 (stereo not given),AC50,[1],"31.6 µM [falling, partial curve]"
Cc1ccc(N2C(=O)c3ccccc3C2O)nc1 (stereo not given),AC50,[1],"10 µM [falling, partial curve]"
CCc1c(CN2CCN(c3ccccc3F)CC2)csc1C,AC50,[1],"31.6 µM [falling, single point]"
Cc1ccc(/C=C/c2onc(C)c2S(=O)(=O)N2CCC(C(=O)NCc3ccc(OC(C)C)cc3)CC2)cc1,AC50,[1],"0.794 µM [falling, full curve, poor fit]"
Cc1ccc(CNC(=O)c2ccccc2NC(=O)c2nsc3ccccc23)cc1,AC50,[1],"39.8 µM [falling, single point]"
COc1ccc(-c2c(C)c3ccc(O)c(CN4CCCC4)c3oc2=O)cc1,AC50,[1],"25.1 µM [rising, single point]"
CCc1ccc(NC(=O)CSc2ncc(S(=O)(=O)c3cc(C)ccc3C)c(=O)[nH]2)cc1,AC50,[1],"15.8 µM [falling, partial curve, poor fit]"
COc1ccc(CC(=O)NC2CC(=O)N(c3ccc(C)c(C)c3)C2)cc1OC (stereo not given),AC50,[1],"7.94 µM [falling, single point]"
CC(C)(C)NC(=O)CSc1ncnc2c1nnn2Cc1ccccc1Cl,AC50,[2],"31.6 µM [rising, single point]"
same,AC50,[3],"25.1 µM [falling, partial curve]"
O=C(Cn1c(=O)oc2cc(S(=O)(=O)N3CCCCC3)ccc21)NCc1ccc(F)cc1,AC50,[1],"20 µM [falling, single point]"
COc1ccc(-c2ccc(=O)n(CC(=O)Nc3cccc(O)c3)n2)cc1OC,AC50,[1],"0.251 µM [rising, full curve, poor fit]"
Cc1ccc(CNC(=O)CN2C(=O)C3(SCC(=O)N3c3ccc(F)c(F)c3)c3ccccc32)cc1 (stereo not given),AC50,[1],"20 µM [falling, partial curve]"
COC(=O)c1c(NC(=O)c2ccc(S(=O)(=O)N(C)C3CCCCC3)cc2)sc2c1CCN(C)C2,AC50,[1],"25.1 µM [falling, single point]"
COC(=O)c1ccccc1NC(=O)C1CCCN(c2nnc(C)c3c(C)n(-c4ccccc4)nc23)C1 (stereo not given),AC50,[1],"12.6 µM [falling, single point]"
CN1C(=O)C(O)(C2COC(C)(C)CC2=O)c2cc(Br)ccc21 (stereo not given),AC50,[1],"6.31 µM [rising, full curve] [measured here: IkB-luc green channel]"
CCOC(=O)C1CCN(c2ncnc3c2c(-c2ccccc2)cn3-c2ccc(Cl)cc2)CC1,AC50,[1],"6.31 µM [falling, partial curve]"
Fc1cccc(Nc2cc(-n3cccn3)ncn2)c1,AC50,[1],"12.6 µM [falling, partial curve]"
O=C(COc1ccc(Cl)cc1Cl)Nc1ccccn1,AC50,[1],"7.94 µM [falling, partial curve]"

# 13 entries from above, reformatted:
smiles | measurement | setting | value
CCc1c(CN2CCN(c3ccccc3F)CC2)csc1C | AC50 | [1] | 31.6 µM [falling, single point]
Cc1ccc(/C=C/c2onc(C)c2S(=O)(=O)N2CCC(C(=O)NCc3ccc(OC(C)C)cc3)CC2)cc1 | AC50 | [1] | 0.794 µM [falling, full curve, poor fit]
Cc1ccc(CNC(=O)c2ccccc2NC(=O)c2nsc3ccccc23)cc1 | AC50 | [1] | 39.8 µM [falling, single point]
COc1ccc(-c2c(C)c3ccc(O)c(CN4CCCC4)c3oc2=O)cc1 | AC50 | [1] | 25.1 µM [rising, single point]
CCc1ccc(NC(=O)CSc2ncc(S(=O)(=O)c3cc(C)ccc3C)c(=O)[nH]2)cc1 | AC50 | [1] | 15.8 µM [falling, partial curve, poor fit]
COc1ccc(CC(=O)NC2CC(=O)N(c3ccc(C)c(C)c3)C2)cc1OC (stereo not given) | AC50 | [1] | 7.94 µM [falling, single point]
CC(C)(C)NC(=O)CSc1ncnc2c1nnn2Cc1ccccc1Cl | AC50 | [2] | 31.6 µM [rising, single point]
same | AC50 | [3] | 25.1 µM [falling, partial curve]
O=C(Cn1c(=O)oc2cc(S(=O)(=O)N3CCCCC3)ccc21)NCc1ccc(F)cc1 | AC50 | [1] | 20 µM [falling, single point]
COc1ccc(-c2ccc(=O)n(CC(=O)Nc3cccc(O)c3)n2)cc1OC | AC50 | [1] | 0.251 µM [rising, full curve, poor fit]
Cc1ccc(CNC(=O)CN2C(=O)C3(SCC(=O)N3c3ccc(F)c(F)c3)c3ccccc32)cc1 (stereo not given) | AC50 | [1] | 20 µM [falling, partial curve]
COC(=O)c1c(NC(=O)c2ccc(S(=O)(=O)N(C)C3CCCCC3)cc2)sc2c1CCN(C)C2 | AC50 | [1] | 25.1 µM [falling, single point]
COC(=O)c1ccccc1NC(=O)C1CCCN(c2nnc(C)c3c(C)n(-c4ccccc4)nc23)C1 (stereo not given) | AC50 | [1] | 12.6 µM [falling, single point]
